Data as given in PubChem BioAssay AID493246 (Drosophila RNAi Screening Center, 2011)

- Screen: 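Identify essential fly genes by loss of cell viability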 (primary screen)
- System: Drosophila Kc and S2R+ cells
- Reagents: long dsRNA against Drosophila genes
- Detection: 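Cell number per well after knock-down, printed as raw plate values; calls were based on per-plate z-scores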
- Reading the numbers: Kc cell number and S2R+ cell number: higher = more cells remaining
- Rule for the call: 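Counted as a hit if cell number falls by a z-score of at least 3 within its plate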
The screen tested about 21,000 reagents; shown is an unselected part of those with a known target gene and a result. Over the whole deposit, 429 (2%) are marked active. 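Values are raw and not normalised between plates; calls rest on per-plate z-scores that were not deposited.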 A number with no mark means an inactive call. A plus sign joins genes that one reagent is predicted to hit. Not stated in the record: the amount of reagent, the time to read-out.

no.	gene knocked down	amplicon	Kc cell number, rep 1	Kc cell number, rep 2	S2R+ cell number, rep 1	S2R+ cell number, rep 2
1	CheB38a (Chemosensory protein B 38a)	DRSC03205	1.44e6	1.42e6	1.10e6	1.13e6
2	Nipped-B	DRSC07815	1.41e6	1.29e6	8.93e5	1.02e6
3	CG32544	DRSC20033	1.58e6	1.57e6	1.06e6	1.18e6
4	GAPcenA (GTPase activating protein and centrosome-associated)	DRSC10771	1.49e6	1.25e6	1.08e6	1.21e6
5	beta3GalTII (beta-1,3-Galactosyltransferase II)	DRSC07253	1.73e6	1.79e6	1.28e6	1.46e6
6	CG2200	DRSC19840	1.50e6	1.44e6	1.09e6	1.07e6
7	DAT (Dopamine transporter)	DRSC07394	1.58e6	1.63e6	1.24e6	1.39e6
8	Cwc25	DRSC00545	1.64e6	1.73e6	1.04e6	1.19e6
9	ProtA (Protamine A)	DRSC03372	1.51e6	1.61e6	1.32e6	1.45e6
10	CG2003	DRSC15411	1.50e6	1.50e6	1.01e6	1.12e6
11	CG4598	DRSC02763	1.61e6	1.66e6	1.24e6	1.46e6
12	faf (fat facets)	DRSC16942	1.56e6	1.53e6	9.77e5	1.11e6
13	CG4074 + CG4186	DRSC11753	1.36e6	1.28e6	1.29e6	1.38e6
14	CG11474	DRSC04112	1.44e6	1.50e6	1.10e6	1.10e6
15	CG5727	DRSC02882	1.44e6	1.43e6	1.17e6	1.28e6
16	CG15213	DRSC10213	1.22e6	1.30e6	1.02e6	1.08e6
17	FER (FER tyrosine kinase)	DRSC12735	1.78e6	1.68e6	1.19e6	1.45e6
18	FER (FER tyrosine kinase)	DRSC16673	1.65e6	1.65e6	1.18e6	1.29e6
19	hd (humpty dumpty)	DRSC12316	1.48e6	1.55e6	1.21e6	1.39e6
20	CG11007	DRSC06023	1.31e6	1.37e6	1.14e6	1.19e6
21	mRpL45 (mitochondrial ribosomal protein L45)	DRSC16146	1.56e6	1.51e6	8.30e5	9.60e5
22	LanB2 (Laminin B2)	DRSC11208	1.37e6	1.49e6	1.28e6	1.27e6
23	Agpat1 (1-Acylglycerol-3-phosphate O-acyltransferase 1)	DRSC19879	1.59e6	1.49e6	1.03e6	1.12e6
24	Agpat1 (1-Acylglycerol-3-phosphate O-acyltransferase 1)	DRSC19880	1.62e6	1.53e6	1.04e6	1.08e6
25	Toll-6	DRSC11304	1.71e6	1.79e6	1.28e6	1.42e6
26	CG14180 (retired record)	DRSC10179	1.07e6	1.13e6	8.01e5	9.01e5
27	Dyrk3 (Dual-specificity tyrosine phosphorylation-regulated kinase 3)	DRSC21055	1.54e6	1.52e6	1.03e6	1.13e6
28	Galk (Galactokinase)	DRSC10500	1.29e6	1.37e6	1.22e6	1.20e6
29	Rab35	DRSC20691	1.55e6	1.60e6	9.71e5	1.06e6
30	eEF1alpha1 (eukaryotic translation elongation factor 1 alpha 1)	DRSC07421	1.55e6	1.63e6	1.07e6	1.20e6
31	CG10474	DRSC05993	1.52e6	1.54e6	1.15e6	1.26e6
32	CG8468	DRSC07190	1.71e6	1.81e6	1.40e6	1.55e6
33	Cdk9 (Cyclin-dependent kinase 9)	DRSC04601	1.36e6	1.43e6	1.18e6	1.26e6
34	Sur (Sulfonylurea receptor)	DRSC03447	1.33e6	1.36e6	1.06e6	1.06e6
35	tor (torso)	DRSC07707	1.68e6	1.68e6	1.31e6	1.52e6
36	CG17712	DRSC00266	1.37e6	1.33e6	1.11e6	1.32e6
37	CG14760	DRSC06495	1.47e6	1.54e6	1.27e6	1.34e6
38	CG31195	DRSC13440	1.37e6	1.37e6	1.03e6	1.12e6
39	CG14673 (retired record)	DRSC12259	1.35e6	1.42e6	1.24e6	1.37e6
40	orion	DRSC18213	1.68e6	1.66e6	1.08e6	1.19e6
41	orion	DRSC18214	1.51e6	1.50e6	1.02e6	1.15e6

Copied from above, 3 entries:
no.	gene knocked down	amplicon	Kc cell number, rep 1	Kc cell number, rep 2	S2R+ cell number, rep 1	S2R+ cell number, rep 2
38	CG31195	DRSC13440	1.37e6	1.37e6	1.03e6	1.12e6
39	CG14673 (retired record)	DRSC12259	1.35e6	1.42e6	1.24e6	1.37e6
40	orion	DRSC18213	1.68e6	1.66e6	1.08e6	1.19e6
